Measured values: patent US20180104321A1
Results are given in words; binding and its absence hold for the method and conditions named. Some entries that bind do so weakly or less than the wild type.

By UniProt entry, the sequences of proteins in these tests, tags left out. Where a name states a change or a piece, a line headed by the entry shows the natural chain unless it says otherwise. Residues count along the entry.
UniProt P20138, residues 18-259: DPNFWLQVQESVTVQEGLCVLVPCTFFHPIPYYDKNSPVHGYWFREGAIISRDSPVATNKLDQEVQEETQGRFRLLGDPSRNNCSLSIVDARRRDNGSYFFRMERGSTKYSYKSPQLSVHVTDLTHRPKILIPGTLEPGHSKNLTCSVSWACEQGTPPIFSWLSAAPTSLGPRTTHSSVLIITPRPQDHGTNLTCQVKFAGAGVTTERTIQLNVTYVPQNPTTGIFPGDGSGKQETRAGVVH

Assays:
[1] = biological target: recombinant CD33-Fc fusion (FIG. 17) (UniProt P20138); test: flow cytometry of transduced PBMCs stained with recombinant CD33-Fc (FIG. 17C)
[2] = biological target: chimeric soluble CD33-Mouse Fc (UniProt P20138); test: flow cytometry of transfected 293T cells (FIG. 22 legend; staining reagents as in Example 9)
[3] = biological target: chimeric soluble CD33-Mouse Fc (UniProt P20138); test: flow cytometry of transfected 293T cells stained with soluble CD33-mouse Fc, then anti-mouse Fc-APC (FIG. 22)

Measured: binding

B1: anti-CD33 CAR of the CD19:CD33 CAR construct of Examples 7 to 10 (receptor, not shown: large carriers)
chain: RCDIQMTQSPSSLSASVGDRVTITCRASEDIYFNLVWYQQKPGKAPKLLIYDTNRLADGVPSRFSGSGSGTQYTLTISSLQPEDFATYYCQHYKNYPLTFGQGTKLEIKRSGGGGSGGGGSGGGGSGGGGSRSEVQLVESGGGLVQPGGSLRLSCAASGFTLSNYGMHWIRQAPGKGLEWVSSISLNGGSTYYRDSVKGRFTISRDNAKSTLYLQMNSLRAEDTAVYYCAAQDAYTGGYFDYWGQGTLVTVSSM
binds: all assays above
